Assay results from US7034208B1, “Ahas inhibiting herbicide resistant wheat and method for selection thereof” (BASF Aktiengellschaft, priority 1991, dated 2006).
Some of these results come from one statement about several compounds together.

What was measured:
[1] = system: wheat selections FS2 and FS4 and Fidel; test: Postemergence Herbicide Tolerance, upper limits; type: in vivo; settings: at 500-1000 g/ha PURSUIT or 25-50 g/ha Compound 2, seven weeks after treatment
Excerpt: In this second greenhouse test, the upper limits of the mutant selections' resistance to postemergent applications of PURSUIT™ and Compound 2 are examined. M4 seed of two of the mutant selections, FS2 and FS4, and seed of Fidel are used in this experiment. Five seeds from each line are planted per pot in sterile Metro Mix 350™ in six inch Azalea pots. Immediately prior to herbicide treatment, these plants are thinned to three plants per pot. Three replicates are used per treatment (chemical & rate) for each line, and six replicates per wheat line are used as untreated controls. The plants are sprayed postemergence, 10 days after planting, with the following herbicides and rates (g/ha):
The herbicides are applied as previously described. Plant height is measured immediately prior to spraying. Plant heights are also measured at two and four weeks after treatment, and shoot fresh weights measured at seven weeks after treatment.

[2] = system: wheat seed of the susceptible cultivar Fidel; test: Pre-emergence herbicide application, rate finding; type: in vivo; settings: visual toxicity after three to four weeks

Structure (SMILES): CCc1cnc(C2=NC(C)(C(C)C)C(=O)N2)c(C(=O)O)c1 (stereo not drawn) [PURSUIT, 5-ethyl-2-(4-isopropyl-4-methyl-5-oxo-2-imidazolin-2-yl)-nicotinic acid]
- shoot fresh weight relative to untreated control fresh weights [1]: 90-100%
- most effective rate, pre-emergent spray [2]: 300-350 g/ha

Structure (SMILES): COCc1cnc(C2=NC(C)(C(C)C)C(=O)N2)c(C(=O)O)c1 (stereo not drawn) [Compound 2, 2-(4-isopropyl-4-methyl-5-oxo-2-imidazolin-2-yl)-5-(methoxymethyl)-nicotinic acid]
- shoot fresh weight relative to untreated control fresh weights [1]: 90-100%
